For some of these results: A weaker result is weaker than the reference pair of the same experiment. For some of these results: The exact form of at least one protein or probe is not confirmed. For some of these results: At least one verdict rests on a figure or table, not on a statement of the authors.
What was measured:
KLF4 DBD (human) [1] = target: KLF4 DBD (human) (UniProt O43474); test: EMSA; details: Zn2+, non-cognate, EMSA interaction said to correlate with LLPS potential, SBE lowest; EMSA: 20 mM Tris pH 8, 50 mM NaCl, 5% glycerol, 0.01 mg/ml BSA, 0.1 mM DTT, 0.05 mM TCEP; gel run at 4 C; protein refolded with 3.3 eq ZnSO4; recombinant protein; residues 418-513; protein details: Nano-His6-TEV tag cleaved
KLF4 DBD (human) [2] = target: KLF4 DBD (human) (UniProt O43474); test: smFRET; details: 1 uM DBD, 100 pM A488-NANK, 500 pM A594-NANK, DNA bridging; 5' amino-C6; recombinant protein; residues 418-513; protein details: Nano-His6-TEV tag cleaved
[3] = target: KLF4 DBD E476D/R501A (human) (UniProt O43474); test: EMSA; details: Zn2+, weaker than wild type, EMSA: 20 mM Tris pH 8, 50 mM NaCl, 5% glycerol, 0.01 mg/ml BSA, 0.1 mM DTT, 0.05 mM TCEP, gel run at 4 C, protein refolded with 3.3 eq ZnSO4, recombinant protein, residues 418-513, protein details: Nano-His6-TEV tag cleaved

Chains of the proteins cited; added tags and fusions are not shown. Residues count along the entry.
UniProt O43474, 418-513: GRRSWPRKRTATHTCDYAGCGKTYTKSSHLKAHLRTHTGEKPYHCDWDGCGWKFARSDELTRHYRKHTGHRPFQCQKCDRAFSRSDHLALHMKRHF
UniProt O43474, 418-513 E476D/R501A: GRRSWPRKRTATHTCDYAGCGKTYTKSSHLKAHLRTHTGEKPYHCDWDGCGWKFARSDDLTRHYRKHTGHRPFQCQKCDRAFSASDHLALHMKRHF

## AATCAGTCTAGACATAC (double strand) [SBE]
KLF4 DBD (human) [1]
  binding result: binds more weakly

## AGGGGGTGTGCCCGCCAGGAGGGGTGGGTC (double strand) [A488-NANK / A594-NANK]
KLF4 DBD (human) [2]
  binding result: binds

## AGGGGGTGTGCCCGCCAGGAGGGGTGGGTC (double strand) [NANK]
[3]
  binding result: binds more weakly

## AGGGGGTGTGCCCGCCAGGAGGGGTGGGTC (double strand) [NANKm]
[3]; 5-methyl-dC at position 13 of strand 1 (CpG in KLFB), complement strand methylation not stated
  binding result: binds more weakly

Source: article PMC8458463
